Earlier results on one molecule are cited in patent publication US20240158750A1, “STROMA-FREE NK CELL DIFFERENTIATION FROM HUMAN PLURIPOTENT STEM CELLS” (The Children's Medical Center Corporation, priority 2021, published 2024).

In the data set the test system is polycomb repressive complex 2 (PRC2). The conditions noted are these: PRC2, at 10 μM; cited from earlier work.

Each structure is given as a SMILES string.

`O=C(O)c1ccc2c(c1)nc(NC(=O)c1ccccc1)n2CCCc1ccccc1` [BRD9539]: the activity remaining is on record as 43%.
